Consider 105 sequences from PubChem BioAssay AID1347423 (Functional Genomics Laboratory (NCATS/FGL), 2020).

The campaign covered roughly 52,000 sequences. About 210 (0.4%) were called active.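 The calls were made as follows: active = gene whose silencing raises cell survival under the drug, median off-target-corrected z-score across its silencing RNAs 2 or more; inactive = the rest.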 The list shows a part of the results.

This assay is described as follows: Resistance to Poly (ADP-Ribose) Polymerase inhibitor: Gene Identification via Genome-wide siRNA Screen. The settings on record: mouse BRCA2 R2336H ES cells, olaparib, CellTiter-Glo viability; active compounds read high. In outline: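 Genome-wide siRNA screen (3 siRNAs/gene, 20 nM) in mouse ES cells carrying hypomorphic BRCA2 R2336H; olaparib 500 nM added 48 h post-transfection, CellTiter-Glo viability 72 h later. Normalized to plate-median negative control; MAD z-scores, gene median, seed-adjusted.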
(ATP-based viability assays read luminescence as a measure of living cells.)
Consider GCUACAGGUAGACAUUCCATT against Ubn1, for which the z-score is inactive: -1.43. For GGACAAGUACCAAGUCAAUTT against Hrasls3, the z-score is inactive: 1.07. Take GGCCAAACCAUCAUGCAAGTT against Nfya: the z-score is inactive: -1.31. In the case of GGUCAAACUUAGCGACAAUTT against Zdhhc8, the z-score is inactive: 0.252. For GGCAACAUAAUAAUUGCAGTT against Olfr1212, the z-score was inactive: -0.599. Regarding GCCCUGGAGUCCUAAUAAATT against Pmvk, the z-score is inactive: -0.657. In the case of GCAGCAAUACAUCCUUCAUTT against Cdh1, the z-score is inactive: -0.549.

Take CGUUUAUUGUAACCAGAAUTT against BC043098: the z-score was inactive: -1.21. With GGAAACUGGCUUAGCAAUGTT against Trappc4, the z-score is inactive: 0.383. In the case of GGUGAGGUUCAAACAUUCUTT against Sdf2, the z-score is inactive: 0.584. For the sequence CCUUCUACUAAUCAAGAGATT against Sparc, the z-score was inactive: -0.487. CCCUGCUGUCGUUUUGACUTT against Senp3: the z-score is inactive: -1.14. For the sequence “GCAAAUUCUGACUUACUAATT against 4932411E22Rik”, the z-score is inactive: -1.77.

Regarding “GGUUAGUGCUCCAUUAUUCTT against 2810009O15Rik”, the z-score was inactive: 0.772.

On to GGCCUUCAAGGUGUUUGAGTT against Flcn, for which the z-score is inactive: -0.739. In the case of CGAUAAAAGAGAGAUGAUUTT against Rap1gds1, the z-score was inactive: 0.406.

For the sequence GGCAUGCAACUAUAUAGUUTT against Slfn4, the z-score is inactive: 0.808. Consider GGCUCUCCAACUGUAUGAATT against MGC78289, for which the z-score was inactive: 0.807. Regarding GGGAAAUCUACUUUGCGUATT against Khdrbs3, the z-score was inactive: 1.32. Turning to CACGCGUCGGCGCAGACUCTT against Hmx2, the z-score is inactive: -3.06. In the case of GCCUGCACUGAAGUUCAAUTT against Sod2 it was inactive: -1.54; in that of GGACGAGCUGUAUUUGAAUTT against Gsk3a, inactive: 0.179. For GGCAUGUUCCUCAUAUGCCTT against Lrrc21, the z-score was inactive: -0.376.

Take GGAAGCUGAUGAGAAUUACTT against Stx4a: the z-score is inactive: 1.89. Consider GGAAUCCUGAUGGUGAUGATT against Mttp, for which the z-score was inactive: 1.02. In the case of “GGUCCUAGUCUUUCAGAUGTT against 4930465P12Rik” it was inactive: -1.76; in that of GGUACCAACGUGUAUGGCATT against Gpaa1, inactive: -2.05; in that of GGGUCAGGAAAAACAGCGATT against Slc15a1, inactive: 0.151.

For “GGAAAAAAAAGACCUAGGATT against 1500004A08Rik”, the z-score was inactive: 0.238. Regarding GGAUGCUGAGUUUCUGCCATT against Bre, the z-score is inactive: 0.0658. Consider “GGCCUUCUAAAGCUGUGAUTT against 6330403K07Rik”, for which the z-score was inactive: 0.00546. As to CCGAUACUUGAACUCUUUUTT against Ctso, the z-score is inactive: -1.26. Regarding GCGGCAACAUUCAAAGUGGTT against Itgb2l, the z-score is inactive: 0.333. Regarding “GCCUUUAGGUGUCAGUCCUTT against 1200003I07Rik”, the z-score was inactive: -0.726. Regarding GGACCUACGUCUUGUCUCCTT against Greb1, the z-score is inactive: 1.25.

GGCAGAAGCAAUGAACUAUTT against Npm1: the z-score was active: 3.59. As for CGAACACUAAGCUUUGAUATT against Rab11fip2, the z-score was inactive: 0.139. As for “GCUUCAAGCCAUCCGAAUATT against 4931428D14Rik”, the z-score was inactive: -0.944. Consider CCUAAUAACUGGACUUUAGTT against Spats2, for which the z-score is inactive: -0.669. For the sequence GGGAAGGAAACCUAGUAAATT against Peg12, the z-score was inactive: 0.775. In the case of GGAGGUCAGACCAGUUUACTT against Htr3b it was inactive: 0.117; in that of GCCUGGAAUGCAGAAUCGATT against Amaco, inactive: -0.132; in that of CCAGCUCAAGCUUUCCACATT against Olfr1105, inactive: -0.503. In the case of “CGGAAGAAUAAAAACCGGCTT against 2310005N01Rik” it was inactive: -0.544; in that of CCACUUACGAGGGCAUUUUTT against A2lp, inactive: -0.833; in that of GGUGGUUAUGAAACUAUCUTT against Jarid1c, inactive: 0.869.

As to GGUUGAAAAUGUUGAUCGUTT against Rhoe, the z-score was inactive: 0.628. With GCUACAAGGAACAUUAAAGTT against Sacs, the z-score is inactive: 0.758.

With GGAGGAGGAGCCAGAAAAGTT against Zswim2, the z-score was inactive: -0.67.

With GGAAGCUACCUGGAUAUCUTT against Astn2, the z-score is inactive: -1.84.

As to CCCGAACCAAGGACAAGUATT against Cdx1, the z-score was inactive: -0.826.

For CCACUGUCCCAAACAUGUUTT against Olfr847, the z-score was inactive: 0.228.

Take GCAGAAGGUACUACUAUCGTT against BC025872: the z-score was inactive: 0.919.

As to GCACGGUGGUUCUAAAAGATT against Skiip, the z-score was inactive: -2.57. In the case of CCAAACUUACAAAUAUGCGTT against Sgpp1 it was active: 3.3.

Consider GGGCUGCUCAAAGUUUUUGTT against Myadm, for which the z-score was inactive: -0.669.

Regarding GGGAAGAAACAUCAGACUATT against Sf3a2, the z-score was inactive: -2.83. “CCAUCACGGAUAAUCAUCGTT against 4931417E11Rik”: the z-score is inactive: 0.214.

On to GGAGAGGGUCUUAGUCAGATT against Wasf1, for which the z-score is inactive: 0.651. Take GAUCCUCAUCACAUCCGUGTT against Olfr461: the z-score was inactive: 0.773. With GGAUUCGAUUCUUCCAAAATT against Peli2, the z-score is inactive: -1.02. In the case of GGUUGUUAAGGACAAAGCATT against Cox5a it was inactive: 0.0429; in that of GGAACAGGCCGAGUUAGUATT against Olfr414, inactive: 0.235; in that of GCAAUGGCUACGAAACACATT against Adam2, inactive: 2.21. For GGUCAAAUCAUUAAGGACATT against Pdzk1, the z-score is inactive: -1.68. Consider GGUCUACCUAAAACUGGAGTT against Cbln4, for which the z-score was inactive: 0.0159. In the case of CCAAAUUAGCAACAUGGAATT against Depdc6, the z-score was inactive: 1.08.

With “CCAAGUCAGUGCUGUAAAGTT against F830104G03Rik”, the z-score is inactive: -0.645. For CCAAUUCCAACCAGGAUUUTT against Slc26a8, the z-score was inactive: 1.38. Take CCUUUAAUAAAGGUCUAGGTT against D15Wsu75e: the z-score is inactive: 0.991. Regarding “GGAGUUGGCAACAAGUUCUTT against 1700017G21Rik”, the z-score is inactive: 0.643. With CCUUCACUGAGUUCUAUACTT against Pes1, the z-score was inactive: -2.9. As to “GGAAAGAAAUUGUAAAUGGTT against C130076O07Rik”, the z-score was inactive: -0.955.

CGAGGUGCUGAAAUCUUGGTT against Ddah1: the z-score was inactive: 0.569.

With GGCCUGAGUAUAAAGUUAGTT against Wbp2, the z-score was inactive: -0.0416.

GGGAUGAACUAUUGGCAGGTT against Lyzl1: the z-score was inactive: 0.471. Turning to CCACCCUUCUUCUAUCGAATT against Ybx2, the z-score is inactive: 0.464.

On to CAGUGCUCAUCAAUAUUGATT against Olfr1163, for which the z-score was inactive: 0.395. In the case of CGAGCUUUCUUCGUACACCTT against Dvl2 it was inactive: 0.518; in that of GGACAAAAUAGAGUGGAUCTT against Ropn1l, inactive: 0.584; in that of GGACAUUGUCAAUAUGCUCTT against Pygm, inactive: 0.197.

Take GGUAAUCAAAGAAGUCAAGTT against Dnaja2: the z-score was inactive: 0.442.

Turning to GCGGGUUAAUUAUCAACUUTT against Agpat3, the z-score is inactive: 0.109.

On to GGUCAUGAGUCCACUGUUUTT against AW210570, for which the z-score is inactive: 0.134.

Consider GCUGUUGAUUGGUCAACUATT against Lmnb1, for which the z-score was inactive: 0.0579. In the case of GCCUUGAGACAAUGAGACATT against Ambn it was inactive: 0.871. For the sequence CCGUCAGGUCUGCAUUCAGTT against Olfr105, the z-score is inactive: -0.235. As to GCUCAGAGACAAGCAACUGTT against Kcnk7, the z-score was inactive: -1.37. Regarding GGCUGAUGUGUUGAAGAUUTT against Cetn3, the z-score is inactive: -1.13. On to GGGCUAAUUUAAACACCUATT against Rdhs, for which the z-score is inactive: 0.328. As to “CCUUGUUGAGAUCAAAUUGTT against D130059P03Rik”, the z-score was inactive: -0.551.

For GGACCAGAGGAGAUUUCAATT against Ern2, the z-score was inactive: -2.2.

As for “GGUAGUGGACCUGACCUAUTT against 1700064K09Rik”, the z-score was inactive: 0.138. Consider UAGGACAGGGAAAAAACUATT against Olfr1065, for which the z-score was inactive: 0.842. With GGCCUACAUCAUUCACUCCTT against Olfr65, the z-score was inactive: 1.08.

Regarding GGUGCUGGAGUUCAUGUACTT against Zbtb17, the z-score is inactive: 0.689. GGAAUUGUAUUACUUUGAGTT against Tm9sf1: the z-score is inactive: 1.03.

As to GGUAUUCAGGAAGUCACCATT against Krt2-4, the z-score was inactive: -0.841. For the sequence GGUGUUUCCCAUUAGAACCTT against Loh12cr1, the z-score was inactive: -0.475.

Regarding “CGUGUCUGAAGGACUACAATT against 1700052K11Rik”, the z-score was inactive: -0.809.

In the case of GGCUGUCCAUUUUCUUAUCTT against Stc2, the z-score was inactive: 1.8. As for GCUAAGUACAGCAAGGACUTT against Abt1, the z-score was inactive: -0.0174. Consider GGAAACAAGACAUAAUAGGTT against Fbxo42, for which the z-score was inactive: 0.295. In the case of CCUUGCUUCGCCUACUUCUTT against Rab3ip it was inactive: -0.308; in that of “GGGAAUAAAGUGUUUGUUUTT against E130113K22Rik”, inactive: 1.7.
